PMC10447549

Chains of the proteins cited; added tags and fusions are not shown.
UniProt Q8R0K9: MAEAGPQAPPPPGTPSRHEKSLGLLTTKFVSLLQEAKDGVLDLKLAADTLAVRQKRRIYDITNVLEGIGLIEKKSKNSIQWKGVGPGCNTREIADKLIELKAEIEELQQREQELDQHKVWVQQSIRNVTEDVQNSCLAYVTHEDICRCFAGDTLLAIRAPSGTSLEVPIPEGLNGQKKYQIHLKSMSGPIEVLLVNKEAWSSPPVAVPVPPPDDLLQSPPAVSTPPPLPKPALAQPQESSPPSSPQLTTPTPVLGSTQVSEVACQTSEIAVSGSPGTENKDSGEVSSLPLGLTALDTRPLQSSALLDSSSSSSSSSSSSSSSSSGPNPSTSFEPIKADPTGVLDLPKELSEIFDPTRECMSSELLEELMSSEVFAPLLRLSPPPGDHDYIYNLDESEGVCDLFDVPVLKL

Columns and labels:
[1] = molecular target: transcription factor E2f4 (endogenous, mouse) (mouse (endogenous in p19/Nras)) (UniProt Q8R0K9); test: affinity purification with mass spectrometry; IP of endogenous E2f4 (Proteintech 10923-1-AP) against isotype control IgG from TNT-150 lysates of Trim33-WT and Trim33-KO p19/Nras cells, LC-MS/MS, three independent reactions
[2] = molecular target: transcription factor E2f4 (endogenous, mouse) (mouse (endogenous in p19/Nras)), Q8R0K9; test: as above; conditions: remark: other sources report otherwise

Row | Binder | binding [1] | binding [2]
1 | Dp1 (endogenous, mouse) (protein, UniProt Q08639 1-410) MAKDASLIEANGELKVFIDQNLSPGKGVVSLVAVHPSTVNTLGKQLLPKTFGQSNVNITQQVVIGTPQRPAASNTIVVGSPHTPNTHFVSQNQTSDSSPWSAGKRNRKGEKNGKGLRHFSMKVCEKVQRKGTTSYNEVADELVAEFSAADNHILPNESAYDQKNIRRRVYDALNVLMAMNIISKEKKEIKWIGLPTNSAQECQNLEVERQRRLERIKQKQSQLQELILQQIAFKNLVQRNRQAEQQARRPPPPNSVIHLPFIIVNTSRKTVIDCSISNDKFEYLFNFDNTFEIHDDIEVLKRMGMACGLESGNCSAEDLKVARSLVPKALEPYVTEMAQGSIGGVFVTTTGSTSNGTRLSASDLSNGADGMLATSSNGSQYSGSRVETPVSYVGEDDDDDDDFNENDEED | binds | 
2 | Dp2 (endogenous, mouse) (protein, UniProt Q64163 1-446) MTAKNVGLPSTNAKLRGFIDQNFSPSKGNISLVAFPVSSTNSPTKILPKTLGPINVNVGPQMIISTPQRIANSGSVLIGNPYTPAPAMVTQTHIAEAAGWVPSDRKRAREFIDSDFSESKRSKKGDKNGKGLRHFSMKVCEKVQRKGTTSYNEVADELVSEFTNSNNHLAADSAYDQENIRRRVYDALNVLMAMNIISSLPTGKKRNQVDCNSAQECQNLEIEKQRRIERIKQKRAQLQELLLQQIAFKNLVQRNRQNEQQNQGPPAVNSTIQLPFIIINTSRKTVIDCSISSDKFEYLFNFDNTFEIHDDIEVLKRMGMSFGLESGKCSLEDLKIARSLVPKALEGYITDISTGPSWLNQGLLLNSTQSVSNLDPTTGATVPQSSVNQGLCLDAEVALATGQLPASNSHQSSSAASHFSESRGETPCSFNDEDEEDEEEDPSSPE | binds | 
3 | Lin54 (endogenous, mouse) (protein, UniProt Q571G4 1-749) MEVVPAEVNSLLPDDIMDTAITLVDEDSIEAVIVSSPIPMETELEEIVNINSTGDSTATPISTEPITVYSNHTNQVAVNTTVSKADSNTTVKPAFPSGLQKLGAQTPVTISANQIILNKVSQTSDLKLGNQTLKPDGQKLILTTLGKSGSPIVLALPHSQLPQAQKVTAQAQPGDAKLPPQQIKVVTIGGRPEVKPVIGVSALTPGSQLINTTTQPSVLQTQQLKTVQIAKKPRTPTSGPVITKLIFAKPINSKAVTGQTTQASPPVVTGRVLSQSTPGTPSKTITISESGVIGSTLNSTTQTPNKIAISPLKSPNKTVKSAVQTITVGGMSTSQFKTIIPLATAPNVQQIQVPGSKFHYVRLVTATTASSSAQPVSQSPSVNTQPLQQAKPVVVNTTPVRMSVPFVQAQAVKQVVPKPINSTSQIVTTSQPQQRLIMPATPLPQIQPNLTNLPPGTVLAPAPGTGNVGYAVLPAQYVTQLQQSSYVSIASNSNFTGTSGIQTQARLPFNGIIPSESTSRPRKPCNCTKSLCLKLYCDCFANGEFCNNCNCTNCYNNLEHENERQKAIKACLDRNPEAFKPKIGKGKEGESDRRHSKGCNCKRSGCLKNYCECYEAKIMCSSICKCIGCKNFEESPERKTLMHLADAAEVRVQQQTAAKTKLSSQISDLLTRPTPALNSAGGKLPFTFVTKEVAEATCNCLLAQAEQADKKGKSKAAAERMILEEFGRCLMSVINSAGKAKSDPCAMHC | binds | 
4 | Lin9 (endogenous, mouse), Q8C735 1-542 (protein) MAELDQLPDESSSAKALVSLKEGSLSNTWNEKYSSLQKTPVWKGRNAGPAVEMPFRNSKRSRLFSDEDDRQINTKSPKRNQRVAMIPQKFTATMSTPDKKASQKIGFRLRNLLKLPKAHKWCIYEWFYSNIDKPLFEGDNDFCVCLKESFPNLKTRKLTRVEWGKIRRLMGKPRRCSSAFFEEERSALKQKRQKIRLLQQRKVADVSQFKDLPDEIPLPLVIGTKVTARLRGIHDGLFTGQIDAVDTLNATYRVTFDRTGLGTHTIPDYEVLSNEPHETMPISAFGQKQRPSRFFMTPPRLHYTPPLQSPITDGDPLLGQSPWRSKVSGSDTETLGGFPVEFLIQVTKLSKILMIKKEHIKKLREMNTEAEKLKSYSMPIGIEFQRRYATIVLELEQLNKDLNKVLHKVQQYCYELAPDQGLQPADQPTDMRRRCEEEAQEIVRQANSASGQPCVENENLTDLISRLTAILLQIKCLAEGGDLNSFEFKSLTDSLNDIKNTIDASNISCFQNNVEIHVAHIQSGLSQMGNLHAFAANNTNRD |  | binds

Continued, values first:

Row | binding [1] | binding [2] | Binder
5 | binds |  | Rbl2 (endogenous, mouse) (protein, UniProt Q64700 1-1135) MASGGNQSPPPPPAAAASSEEEEEDGDAADRAQPAGSPSHQIQQRFEELCSRLNMDEAARAEAWSSYRSMSESYTLEGNDLHWLACALYVACRKSVPTVSKGTAEGNYVSLTRILRCSEQSLIEFFNKMKKWEDMANLPPHFRERTERLERNFTVSAVIFKKYEPIFQDIFKYPQEEQPRQQRGRKQRRQPCTTSEIFHFCWVLFIYAKGNFPMISDDLVNSYHLLLCALDLVYGNALQCSNRKELVNPNFKGLSEDCHPKDSKASSDPPCVIEKLCSLHDGLVLEAKGIKEHFWKPYIRKLFEKKLLKGKEENLTGFLEPGNFGESFKAVNKAYEEYVLAAGNLDERVFLGEDAEEEVGTLSRCLSAASGTESAERTQMRDILQQHLDKSKALRVCTPLTGVRYVQENSPCVTPVSTAAHSLSRLHTMLSGLRNAPSEKLERILRSCSRDPTQAIADRLKEMYEIYSQHFQPDENFSNCAKEIANKHFRFAEMLYYKVLESVIEQEQKRLGDMDLSGVLEHDAFHRSLLACCLEVVAFSHKPPGNFPFIAEIFDVPHYHFYKVIEVFIRAEDGLCREVVKHLNQIEEQILDHLAWKTKSPLWDRIRDNENRVPTCEEVMPPQNLERTDEIYIAGSPLTPRRVGEVRADAGGLGRSITSPTTLYDRYSSPTVSTTRRRLFENDSPSEGSTSGRIPPQPLVNAVPVQNVPGETVSVTPVPGQTLVTMATATVTANNGQTVTIPVQGIANENGGITFFPVQVNVGGQAQAVAGSIQPLSAQALAGSLSSQQVTGTTLQVPGPVAIQQISPGGQQQNPGQPLTSSSIRPRKTSSLALFFRKVYYLAGVRLRDLCIKLDISDELRKKIWTCFEFSIIQCTELMMDRHLDQLLMCAIYVMAKVTKEDRSFQNIMRCYRTQPQARSQVYRSVLIKGKRRNSGSSESRSHQNSPTELNTDRASRDSSPVMRSNSTLPVPQPSSAPPTPTRLTGASSDVEEEERGDLIQFYNNIYRKQIQAFAMKYSQANAQTDTPPLSPYPFVRTGSPRRVQLSQSHPIYISPHNNEAMPSPREKIFYYFSNSPSKRLREINSMIRTGETPTKKRGILLDDGSESPAKRICPENHSALLRRLQDVANDRGSQ
6 | binds |  | Recql DNA helicase (endogenous, mouse) (protein, UniProt Q9Z129 1-648) MASVSALTEELESVASELHAIDIQIQELTERRQELLQRKSVLTGKIKQYLEDSSAEASSDLDTSPAAWNKEDFPWFGKVKDVLQNVFKLQKFRPLQLETINVTMARKDIFLVMPTGGGKSLCYQLPALCSDGFTLVICPLISLMEDQLMVLKQLGISATMLNASSSKEHVKWVHAEMVNKNSQLKLIYVTPEKIAKSKMFMSRLEKAYEAGRLTGAAVDEVHCCSQWGHDFRPDYKALGILKRQFPNASLMGLTATATNHVLKDVQKILCVGKCLTFTASFNRPNLFYEVRQKPSSAEDFTEDIVKLINGRYKGQSGIIYCFSQKDSEQITISLQKLGIHAGTYHANMEPEDKTKVHTQWSANELQVVVATVAFGMGIDKPDVRFVIHHSMSKSMENYYQESGRAGRDDSRADCILYYGFGDIFRISSMVVMENVGQQKLYEMVSYCQNVSKCRRVLIAQHFDEVWNADACNKMCDNCCKDVSFEKKNVTQHCRDLIKILKQAEGLNEKLTPLKLIDAWMGKGAAKLRVAGVVAPALPREDLERIVAHALLQQYLKEDYSFTAYATISYLKVGPRACLLSNEAHAVTMQVKKSAQSSVRGALSEARQVEQVDSKGEEQSSGNSQKSKSRLQPSGSKNAGAKKRKLDDA
7 | binds |  | Rbl1 (endogenous, mouse) (protein, UniProt Q64701 1-1063) MFEDEPHAEGAAAVAAAREALQALCQELNLDEGSAAEALDDFTAIRGNYSLEGEVIHWLACSLYVACRKSIIPTVGKGVMEGNCVSLTRILRSAKLSLIQFFSKMKKWMDMSNLPQEFRERIERLERNFEVSTVIFKKFEPIFLDIFQNPYEEPPKLPRSRKQRRIPCSVKDLFNFCWTLFVYTKGNFRMIGDDLVNSYHLLLCCLDLIFANAIMCPNRRDLLNPSFKGLPSDFHAPDFKAAEEPPCIIAVLCDLHDGLLVEAKGIKEHYFKPYISKLFDKKILKGECLLDLSSFTDNSKAVNKEYEEYVLTVGDFDERIFLGADAEEEIGTPRKFTADTPFGKLTSQASVECNLQQHFEKKRSFAPSTPLTGRRYLQEKEAVTTPVASATQSVSRLQSIVAGLKSAPSEQLLNIFESCMRNPMGNIIKIVKGIGETFCQHYTQSTDKQPGSHIDFAVNRLKLAEILYYKILETIMVQETRRLHGMDMSVLLEQDIFHKSLMACCLEIVLFAYSSPRTFPWIIEVLDLQPFYFYKVIEVVIRSEEGLSRDMVKHLNSIEEQILESLAWTNNSALWEALHASANRVPSCEEVIFPNNFEIGNGGNVQGHLPMMPMSPIIHPRVKEVRTDSGSLRQDMQPLSPISVHERYSSPAAGSAKRRLFGDDPPKDTLMDKIMAEGTKLKIAPSSVTAESLSISPGQALLTMATTTVTGTTGRKVTVPLHGIANDAGEITLVPISMNPTQESTAESPVSLTAQSLIGTSPKQTHLTKAQDAHLTGVSKPKRTGSLALFYRKVYHLASVRLRDLCLKLDVSNELRRKIWTCFEFTLVHCPDLMKDRHLDQLLLCAFYIMAKVTKEERTFQEIMKSYRNQPQANSHVYRSVLLKSIPGGVVVYNGDCEMTDGDIEDATKTPNCSSEPVKEERGDLIKFYNTVYVGRVKSFALKYDLSNQDHIMDAPPLSPFPHIKQQPGSPRRISQQHSLYVSPHKNGAGLTPRSALLYKFNGSPSKSLKDINNMIRQGEQKTKKRVIAISGDADSPAKRLCQENDDVLLKRLQDVVSERANH

Results are given in words; binding and its absence hold for the method and conditions named. In cells and extracts the contact can be indirect. A yes stands for co-enrichment or nearness to the bait. Other partners may have been found.
